PubChem BioAssay AID2685 (National Center for Advancing Translational Sciences (NCATS), 2010)
The list shows a part of the results. Shown are side measurements of this screen, not its main read-out; they come without a call. Most of these compounds were active or inconclusive in the main read-out, so they are no random draw. The note in brackets gives the kind of curve behind each potency; many fits are weak.

Assay: qHTS Assay for Lipid Storage Modulators in Drosophila S3 Cells;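 for cell number change: cells counted by Cell Tracker Red CMTPX staining in the red channel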
Conditions: BODIPY lipid droplet fluorescence, 18-24 h; for cell number change: measured here: cell count max response, cells fed with added oleic acid
Summary of the method: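 Laser-scanning cytometry quantifies lipid droplet accumulation (500–530 nm total intensity; droplet/cell object ratio) in oleic acid-fed (400 uM added) Drosophila S3 cells treated with a concentration series. 20 uM Triacsin C defined 100% inhibition.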

[1] = measured here: lipid fluorescence (Fed channel) AC50, cells fed with added oleic acid
[2] = measured here: cell number channel AC50, cells fed with added oleic acid

Row | Structure (SMILES) | cell number change [%] | AC50 [1] | AC50 [2]
1 | O=[N+]([O-])c1cc(S(=O)(=O)N2CCCCC2)ccc1NCCCN1CCOCC1 | -1.14 | 0.0411 µM [rising, single point] | 
2 | CC(=O)c1ccc(OCCCC(=O)NCC(c2ccco2)N(C)C)cc1 (configuration not stated) | 1.6 |  | 
3 | CCc1ccc(C2C(C#N)=C(N)N(N(C)C)C3=C2C(=O)CCC3)s1 (configuration not stated) | 11.8 | 13 µM [rising, partial curve, poor fit] | 
4 | O=C1NC2(CCCCCC2)C(=O)N1Cc1ccccc1Cl | 24.3 |  | 6.51 µM [rising, single point]
5 | Cc1cccc(C2c3[nH]c4ccccc4c3CCN2C(=O)c2cn(C)c3ccccc3c2=O)n1 (configuration not stated) | -4.62 | 0.82 µM [falling, full curve, poor fit] | 
6 | CSC1=C(C#N)C(c2ccc(C)cc2)C2=C(CCCC2=O)N1 (configuration not stated) |  |  | 6.51 µM [rising, partial curve, poor fit]
7 | O=C(NCCN1CCOCC1)c1cc(-c2ccccc2)on1 | 9.06 | 0.651 µM [falling, single point] | 
8 | O=C(O)CCC(NS(=O)(=O)c1ccc(-c2ccccc2)cc1)C(=O)O (configuration not stated) | 9.25 |  | 
9 | O=C(O)CNc1nc(-c2ccccc2)c2cc([N+](=O)[O-])ccc2n1 | -21.2 | 0.259 µM [falling, partial curve, poor fit] | 
10 | Cc1cc(C)n(Cc2cnc(N3CCOCC3)s2)n1 | 29.9 |  | 
11 | CCOc1ccccc1N1CC(C(=O)N2CCc3ccccc3C2)CC1=O (configuration not stated) | 12.8 | 29.1 µM [rising, single point] | 
12 | C=CCOC(=O)c1ccc(N2CCN(c3ccccc3)CC2)nc1 | 11.8 | 5.8 µM [rising, single point] | 
13 | COc1cc(C(=O)NC(=S)Nc2csc(-c3ccc(F)cc3)n2)cc(OC)c1OC | 0.673 | 6.51 µM [falling, partial curve, poor fit] | 
14 | CCOC(=O)c1c(Nc2nc(C)c(C(=O)NC)s2)sc(C)c1C |  | 6.51 µM [rising, single point] | 
15 | Cc1cccc(-c2nc(Nc3ccc(N4CCOCC4)cc3)c3ccccc3n2)c1 | 13.1 | 2.31 µM [rising, partial curve] | 
16 | Cc1cc(C)n(-c2ncc(-c3ccccc3)nn2)n1 | 118 | 0.651 µM [rising, single point] | 2.06 µM [rising, full curve]
17 | O=C(COC(=O)CCN1C(=O)C2CC=CCC2C1=O)NCCc1ccc(F)cc1 (configuration not stated) | 2.96 | 29.1 µM [rising, single point] | 
18 | Cc1cccc(-n2c(N)cc(=O)[nH]c2=S)c1 | 3.22 | 0.259 µM [falling, full curve, poor fit] | 

An excerpt of these results, field by field.
CCc1ccc(C2C(C#N)=C(N)N(N(C)C)C3=C2C(=O)CCC3)s1 (configuration not stated)
  cell number change [%]: 11.8
  AC50 [1]: 13 µM [rising, partial curve, poor fit]
O=C1NC2(CCCCCC2)C(=O)N1Cc1ccccc1Cl
  cell number change [%]: 24.3
  AC50 [2]: 6.51 µM [rising, single point]
